Measurements reported in publication doi:10.1101/608976.
Results are given in words; binding and its absence hold for the method and conditions named. Binding seen in cells or lysates may run through a third protein. Some results given as binding are weak or reduced against the parent protein; the word gives no strength. For some assays here: Tags and fused reporters may be left off the sequences shown.

What was measured:
[1] = biological target: Cas1(Q287A/I291G), C-terminal tail mutant, StrepII-tagged (E. coli) (UniProt Q46896); experiment: pull-down + SEC
[2] = biological target: T1, Cas1 (wild type, E. coli type I-E), StrepII-tagged (E. coli) (UniProt Q46896); experiment: pull-down + SEC
T1 sequence: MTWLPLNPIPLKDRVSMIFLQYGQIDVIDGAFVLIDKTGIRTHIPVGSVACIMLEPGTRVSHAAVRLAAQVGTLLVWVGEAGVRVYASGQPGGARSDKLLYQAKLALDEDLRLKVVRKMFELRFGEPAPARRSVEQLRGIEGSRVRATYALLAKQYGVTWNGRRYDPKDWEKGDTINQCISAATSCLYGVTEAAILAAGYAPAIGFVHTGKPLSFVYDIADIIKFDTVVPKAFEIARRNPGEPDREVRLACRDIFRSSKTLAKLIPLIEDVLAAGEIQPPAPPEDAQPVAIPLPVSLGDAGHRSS

B1: Cas2 (E. coli type I-E) (protein, UniProt P45956 1-94)
chain: MSMLVVVTENVPPRLRGRLAIWLLEVRAGVYVGDVSAKIREMIWEQIAGLAEEGNVVMAWATNTETGFEFQTFGLNRRTPVDLDGLRLVSFLPV
For B1, the binding [1] was “binds” and the binding [2] was “binds”.
